From patent publication US20240165145A1, “COMPOSITIONS AND METHODS FOR TREATING CANCER AND BIOMARKERS TO DETECT CANCER STEM CELL REPROGRAMMING AND PROGRESSION” (The Regents of the University of California, priority 2016, published 2024)
At least one compound was matched to its structure with a doubt left.

Tested on: BC CML LSC (human BC CD34+ cells engrafted in RAG2-/-γc-/- mice)
Assay: FACS analysis of human BC progenitor engraftment in hematopoietic tissues of treated RAG2-/-γc-/- mice
Assay type: in vivo, mouse
Details: RAG2-/-γc-/- mice engrafted with human BC CD34+ cells; oral gavage two weeks; SAR302503 60 mg/kg twice daily, dasatinib 50 mg/kg daily

Cc1nc(Nc2ncc(C(=O)Nc3c(C)cccc3Cl)s2)cc(N2CCN(CCO)CC2)n1 [dasatinib]
BC LSC survival (FACS of hematopoietic tissues) compared to vehicle-treated controls: inhibited BC LSC survival
